Data: paper PMC9127750
These are yes or no findings as the source states them, for the method shown. Binding seen in cells or lysates may run through a third protein. Binding calls can cover weak binding; strength is not graded here.

Chains of the proteins cited; added tags and fusions are not shown. Lines headed by an entry give the natural chain unless they say otherwise; changes in a name come on top.
UniProt Q13153: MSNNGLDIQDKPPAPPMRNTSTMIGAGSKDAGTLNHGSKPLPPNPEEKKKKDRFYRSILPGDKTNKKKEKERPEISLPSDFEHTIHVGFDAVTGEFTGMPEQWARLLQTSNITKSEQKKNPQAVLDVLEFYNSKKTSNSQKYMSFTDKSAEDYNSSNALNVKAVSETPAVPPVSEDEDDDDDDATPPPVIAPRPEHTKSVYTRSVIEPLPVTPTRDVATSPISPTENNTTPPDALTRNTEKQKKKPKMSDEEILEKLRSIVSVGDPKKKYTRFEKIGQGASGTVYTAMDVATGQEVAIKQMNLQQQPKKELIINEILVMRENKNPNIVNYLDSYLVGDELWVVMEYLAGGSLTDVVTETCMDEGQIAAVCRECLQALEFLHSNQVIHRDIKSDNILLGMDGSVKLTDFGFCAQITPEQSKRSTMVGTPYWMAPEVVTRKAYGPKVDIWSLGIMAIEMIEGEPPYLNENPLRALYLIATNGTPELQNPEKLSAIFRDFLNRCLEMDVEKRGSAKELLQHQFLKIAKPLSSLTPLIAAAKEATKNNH
UniProt P60953: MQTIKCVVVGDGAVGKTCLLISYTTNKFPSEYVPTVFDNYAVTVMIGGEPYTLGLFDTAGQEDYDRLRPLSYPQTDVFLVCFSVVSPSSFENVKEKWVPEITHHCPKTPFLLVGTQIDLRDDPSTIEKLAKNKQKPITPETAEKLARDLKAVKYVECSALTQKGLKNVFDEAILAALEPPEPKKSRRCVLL
UniProt Q9H4E5: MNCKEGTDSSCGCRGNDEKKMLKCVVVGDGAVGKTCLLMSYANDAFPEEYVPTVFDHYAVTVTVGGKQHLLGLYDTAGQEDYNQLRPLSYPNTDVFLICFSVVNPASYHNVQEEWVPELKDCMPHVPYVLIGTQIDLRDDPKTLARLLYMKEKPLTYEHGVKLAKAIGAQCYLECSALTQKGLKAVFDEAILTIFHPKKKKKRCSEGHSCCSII

Target: PAK1-p21 binding domain (PAK1-PBD)-coupled beads (UniProt Q13153)
Experiment: pull-down

binding | Substance
binds | CDC42 (from UniProt P60953 1-191)
binds | RHOJ (from UniProt Q9H4E5 1-214)
